Some of these results come from one statement about several compounds together. For at least one compound, name, drawing or mass did not settle the structure.
Target: T1, human beta 2 adrenoreceptor (Homo sapiens, UniProt P07550)
T1 construct: expressed in transfected cells; host or cells: frog melanophores
Experiment: frog melanophores transfected with the human beta 2 adrenoreceptor, pigment dispersal (light transmittance)
Assay type: cell-based
Conditions: melatonin-induced pigment aggregation, read-out: IC50 at the human beta 2 adrenoreceptor (beta 2 agonist activity)

Question: `OCc1cc([C@@H](O)CNCCc2ccc(OCCOCc3cccc(F)c3)cc2)ccc1O` [Example 3, 4-((1R)-2-{[2-(4-{2-[(3-Fluorobenzyl)oxy]ethoxy}phenyl)ethyl]amino}-1-hydroxyethyl)-2-(hydroxymethyl)phenol acetate] was tested. Which IC50 did it give?
Answer: < 1000 nM

Question: `Cc1cccc(COCCOc2ccc(CCNCC(O)c3ccc(O)c(CO)c3)cc2)c1` [Example 4, 2-(Hydroxymethyl)-4-((1R)-1-hydroxy-2-{[2-(4-{2-[(3-methylbenzyl)oxy]ethoxy}phenyl)ethyl]amino}ethyl)phenol acetate] was tested. Which IC50 did it give?
Answer: < 1000 nM

Question: With `OCc1cc([C@@H](O)CNCCc2ccc(OCCOCc3cccc(Cl)c3)cc2)ccc1O` [Example 5, 4-((1R)-2-{[2-(4-{2-[(3-Chlorobenzyl)oxy]ethoxy}phenyl)ethyl]amino}-1-hydroxyethyl)-2-(hydroxymethyl)phenol acetate] as the compound, how does the IC50 read?
Answer: < 1000 nM

Question: How did the IC50 turn out when `OCc1cc([C@@H](O)CNCCc2ccc(OCCOCc3cccc(I)c3)cc2)ccc1O` [Example 6, 4-((1R)-1-Hydroxy-2-{[2-(4-{2-[(3-iodobenzyl)oxy]ethoxy}phenyl)ethyl]amino}ethyl)-2-(hydroxymethyl)phenol acetate] was run?
Answer: < 1000 nM

Question: For `OCc1cc([C@@H](O)CNCCc2ccc(OCCOCc3cccc(O)c3)cc2)ccc1O` [Example 15, 4-((1R)-1-Hydroxy-2-{[2-(4-[2-[(3-hydroxybenzyl)oxy]ethoxy}phenyl)ethyl]amino}ethyl)-2-(hydroxymethyl)phenol acetate], which IC50 is on record?
Answer: < 1000 nM

Question: For `C[C@@H](Cc1ccc(OCCOCc2ccccc2)cc1)NC[C@H](O)c1ccc(O)c(CO)c1` [Example 16, 4-{(1R)-2-[((1S)-2-{4-[2-(Benzyloxy)ethoxyy]phenyl}-1-methylethyl)amino]-1-hydroxyethyl}-2-(hydroxymethyl)phenol acetate], which IC50 is on record?
Answer: < 1000 nM

Question: For `CC(Cc1ccc(OCCOCc2ccccc2)cc1)NCC(O)c1ccc(O)c(CO)c1` [Example 17, 4-{(1R)-2-{((1R)-2-{4-[2-(Benzyloxy)ethoxy]phenyl}-1-methylethyl)amino]-1-hydroxyethyl}-2-(hydroxymethyl)phenol acetate], which IC50 is on record?
Answer: < 1000 nM

Question: Which IC50 does the source give for `OCc1cc([C@@H](O)CNCCc2ccc(OCCOCc3ccc(F)cc3)cc2)ccc1O` [Example 21, 4-((1R)-2-{[2-(4-{2-[(4-Fluorobenzyl)oxy]ethoxy}phenyl)ethyl]amino}-1-hydroxyethyl)-2-(hydroxymethyl)phenol acetate] here?
Answer: < 1000 nM

Question: For `OCc1cc(C(O)CNCCc2ccc(OCCOCc3c(Cl)cccc3Cl)cc2)ccc1O` [Example 22, 4-((1R)-2-{[2-(4-[2-[(2,6-Dichlorobenzyl)oxy]ethoxy]phenyl)ethyl]amino}-1-hydroxyethyl)-2-(hydroxymethyl)phenol acetate], which IC50 is on record?
Answer: < 1000 nM

Question: `CC(C)Oc1ccc(COCCOc2ccc(CCNC[C@H](O)c3ccc(O)c(CO)c3)cc2)cc1` [Example 26, 4-((1R)-1-Hydroxy-2-{[2-(4-{2-[(4-isopropoxybenzyl)oxy]ethoxy}phenyl)ethyl]amino}ethyl)-2-(hydroxymethyl)phenol acetate] was tested. Which IC50 did it give?
Answer: < 1000 nM

Question: Which IC50 does the source give for `OCc1cc(C(O)CNCCc2ccc(OCCOCc3ccc(O)cc3)cc2)ccc1O` [Example 27, 4-((1R)-1-Hydroxy-2-{[2-(4-{2-[(4-hydroxybenzyl)oxy]ethoxy}phenyl)ethyl]amino}ethyl)-2-(hydroxymethyl)phenol acetate] here?
Answer: < 1000 nM

Question: How did the IC50 turn out when `CC(C)[S+]([O-])c1cccc(COCCOc2ccc(CCNC[C@H](O)c3ccc(O)c(CO)c3)cc2)c1` (stereo partly drawn) [Example 32, 4-[(1R)-1-Hydroxy-2-({2-[4-(2-{[3-(isopropylsulfinyl)benzyl]oxy}ethoxy)phenyl]ethyl}amino)ethyl]-2-(hydroxymethyl)phenol acetate] was run?
Answer: < 1000 nM

Question: For `CC(C)S(=O)(=O)c1cccc(COCCOc2ccc(CCNC[C@H](O)c3ccc(O)c(CO)c3)cc2)c1` [Example 33, 4-[(1R)-1-Hydroxy-2-({2-[4-(2-{[3-(isopropylsulfonyl)benzyl]oxy}ethoxy)phenyl]ethyl}amino)ethyl]-2-(hydroxymethyl)phenol acetate], which IC50 is on record?
Answer: < 1000 nM

Question: For `OCc1cc([C@@H](O)CNCCc2ccc(OCCCCc3ccccc3)cc2)ccc1O` [Example 34, 2-(Hydroxymethyl)-4-[(1R)-1-hydroxy-2-({2-[4-(4-phenylbutoxy)phenyl]ethyl}amino)ethyl]phenol acetate], which IC50 is on record?
Answer: < 1000 nM

Question: `OCc1cc([C@@H](O)CNCCc2ccc(OCCCCc3cccc(O)c3)cc2)ccc1O` [Example 35, 4-{(1R)-1-Hydroxy-2-[(2-{4-[4-(3-hydroxyphenyl)butoxy]phenyl}ethyl)amino]ethyl}-2-(hydroxymethyl)phenol acetate] was tested. Which IC50 did it give?
Answer: < 1000 nM

Question: How did the IC50 turn out when `[O-][S+](c1cccc(CCCCOc2ccc(CCNC[C@H](O)c3ccc(O)c(CO)c3)cc2)c1)C1CCCC1` (stereo partly drawn) [Example 36, 4-((1R)-2-{[2-(4-{4-[3-(Cyclopentylsulfinyl)phenyl]butoxy}phenyl)ethyl]amino}-1-hydroxyethyl)-2-(hydroxymethyl)phenol acetate] was run?
Answer: < 1000 nM

Question: Which IC50 does the source give for `OCc1cc(C(O)CNCCc2ccc(OCCCCc3c(Cl)cccc3Cl)cc2)ccc1O` [Example 37, 4-{(1R)-2-[(2-{4-[4-(2,6-Dichlorophenyl)butoxy]phenyl]ethyl)amino]-1-hydroxyethyl}-2-(hydroxymethyl)phenol acetate] here?
Answer: < 1000 nM

Question: For “N-{3-[(2-{4-[2-({(2R)-2-Hydroxy-2-[4-hydroxy-3-(hydroxymethyl)phenyl]ethyl}amino)ethyl]phenoxy}ethoxy)methyl]phenyl}dicarbonimidic diamide acetate [Example 2]”, which IC50 is on record?
Answer: < 1000 nM
